Assay results: patent US20240108662A1, “ENGINEERED CELLS FUNCTIONALIZED WITH IMMUNE CHECKPOINT MOLECULES AND USES THEREOF” (The University of North Carolina at Chapel Hill, priority 2020, published 2024)

Assay: Proteomic analysis of native murine pancreata and decelled pancreatic ECM (Table 1)
Parameters: species or system mouse
Conditions: for Pancreatic ECM: Mean of log2(intensities): abundance of the listed protein in decelled pancreatic ECM; for Native pancreas tissue: Mean of log2(intensities): abundance of the listed protein in native murine pancreas tissue

B1: Q91YH5 (protein, UniProt Q91YH5 1-541, looked up)
chain: MLSPQRTAAVASRGAGDAMENGKPGPVQVVLVHKEQHSFELEERALASVLLQDHIRDLDVVVVSVAGAFRKGKSFILDFMLRYLYSQKEGGHSDWLGDPEEPLTGFSWRGGSDPETTGIQIWSEVFTVKKPCGKKVAVVLMDTQGAFDSQSTVKDCATIFALSTMTSSVQIYNLSQNIQEDDLQQLQLFTEYGRLAMDEIFQKPFQTLMFLIRDWSFPYEYNYGLQGGMAFLDKRLHVKEHQHEEIQNVRNHIHSCFSDVTCFLLPHPGLQVATSPNFDGKLKDIASEFKEQLQALIPYVLNPSKLMEKEINGSKVTCRGLLEYFKAYIKIYQGEDLPHPKSMLQATAEANNLAAAASAKDIYYNNMEEICGGEKPYLSPDILEEKHLEFKQLALDHFKKIKKMGGKDFSFRYQQELEEEIKELYENFCKHNGSKNVFSTFRTPAVLFTGIAALYIASGFTGFIGLEVVAQLFNCMVGLLLIALLTWGYIRYSGQYRELGGAIDSGAAYVLEQASSHIGNSTQAAVRDAVVGRPPADKKSQ
modifications: full-length
Pancreatic ECM: Mean of log2(intensities): 27.53 a.u.
Native pancreas tissue: Mean of log2(intensities): 21.23 a.u.

B2: O88697 (protein, UniProt O88697 1-305, looked up)
chain: MGHALCVCSRGTVIIDNKRYLFVQKLGEGGFSYVDLVEGLHDGHFYALKRILCHEQQDQEEAQREAEMHRLFQHPNILRLMAYSLKERGAKHEAWLLLPFFKKGTLWNEIERLKDQGSFLTEDQILPLLLGISRGLEAIHAKGYAHRDLKPTNILLGDEGQPVLMDLGSMNQACIQVEGSRQALALQDWAAQRCTISYRAPELFSVQSHCVIDERTDVWSLGCVLYAMMFGEGPYDMVFQKGDSVALAVQNELSIPQSPRHSSALRQLLSSMMTVDPQQRPHIPVLLSQLEALQPPAPGQHTTQI
modifications: full-length
Pancreatic ECM: Mean of log2(intensities): 26.83 a.u.
Native pancreas tissue: Mean of log2(intensities): 21.01 a.u.

B3: P08121 (protein, UniProt P08121 1-1464, looked up)
chain: MMSFVQSGTWFLLTLLHPTLILAQQSNVDELGCSHLGQSYESRDVWKPEPCQICVCDSGSVLCDDIICDEEPLDCPNPEIPFGECCAICPQPSTPAPVLPDGHGPQGPKGDPGPPGIPGRNGDPGLPGQPGLPGPPGSPGICESCPTGGQNYSPQFDSYDVKSGVGGMGGYPGPAGPPGPPGPPGSSGHPGSPGSPGYQGPPGEPGQAGPAGPPGPPGALGPAGPAGKDGESGRPGRPGERGLPGPPGIKGPAGMPGFPGMKGHRGFDGRNGEKGETGAPGLKGENGLPGDNGAPGPMGPRGAPGERGRPGLPGAAGARGNDGARGSDGQPGPPGPPGTAGFPGSPGAKGEVGPAGSPGSNGSPGQRGEPGPQGHAGAQGPPGPPGNNGSPGGKGEMGPAGIPGAPGLIGARGPPGPAGTNGIPGTRGPSGEPGKNGAKGEPGARGERGEAGSPGIPGPKGEDGKDGSPGEPGANGLPGAAGERGPSGFRGPAGPNGIPGEKGPPGERGGPGPAGPRGVAGEPGRDGTPGGPGIRGMPGSPGGPGNDGKPGPPGSQGESGRPGPPGPSGPRGQPGVMGFPGPKGNDGAPGKNGERGGPGGPGLPGPAGKNGETGPQGPPGPTGPAGDKGDSGPPGPQGLQGIPGTGGPPGENGKPGEPGPKGEVGAPGAPGGKGDSGAPGERGPPGTAGIPGARGGAGPPGPEGGKGPAGPPGPPGASGSPGLQGMPGERGGPGSPGPKGEKGEPGGAGADGVPGKDGPRGPAGPIGPPGPAGQPGDKGEGGSPGLPGIAGPRGGPGERGEHGPPGPAGFPGAPGQNGEPGAKGERGAPGEKGEGGPPGPAGPTGSSGPAGPPGPQGVKGERGSPGGPGTAGFPGGRGLPGPPGNNGNPGPPGPSGAPGKDGPPGPAGNSGSPGNPGIAGPKGDAGQPGEKGPPGAQGPPGSPGPLGIAGLTGARGLAGPPGMPGPRGSPGPQGIKGESGKPGASGHNGERGPPGPQGLPGQPGTAGEPGRDGNPGSDGQPGRDGSPGGKGDRGENGSPGAPGAPGHPGPPGPVGPSGKSGDRGETGPAGPSGAPGPAGARGAPGPQGPRGDKGETGERGSNGIKGHRGFPGNPGPPGSPGAAGHQGAIGSPGPAGPRGPVGPHGPPGKDGTSGHPGPIGPPGPRGNRGERGSEGSPGHPGQPGPPGPPGAPGPCCGGGAAAIAGVGGEKSGGFSPYYGDDPMDFKINTEEIMSSLKSVNGQIESLISPDGSRKNPARNCRDLKFCHPELKSGEYWVDPNQGCKMDAIKVFCNMETGETCINASPMTVPRKHWWTDSGAEKKHVWFGESMNGGFQFSYGPPDLPEDVVDVQLAFLRLLSSRASQNITYHCKNSIAYMDQASGNVKKSLKLMGSNEGEFKAEGNSKFTYTVLEDGCTKHTGEWSKTVFEYQTRKAMRLPIIDIAPYDIGGPDQEFGVDIGPVCFL
modifications: full-length
Pancreatic ECM: Mean of log2(intensities): 29.90 a.u.
Native pancreas tissue: Mean of log2(intensities): 22.28 a.u.
